Measurements reported in PubChem BioAssay AID504784 (Drosophila RNAi Screening Center, 2011).
Aim: 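Search for regulators of lipid droplet storage in oleate-fed fly cells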 (primary screen). Cell system: Drosophila Kc167 embryonic cells. Reagents: long dsRNA against Drosophila genes, about 250 ng dsRNA per well. Timing: 4 days. Conditions: cells fed 400 µM oleic acid bound to BSA. Measurement: 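Microscope images give a droplet-to-nucleus area ratio, taken as log and converted to a screen-wide B-score; higher values mean greater lipid storage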. Direction: droplet/nuclear area B-score: higher = more stored lipid (overstorage).
The screen tested about 17,000 reagents; shown is an unselected part of those that have a named target and a result. 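Each column is one replicate's B-score; the combined score over replicates was not deposited, so single values may mislead.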 The numbers tell different reagents against one gene apart. Not all columns of the deposit are shown. No sequences are given here.

no.	gene	reagent	droplet/nuclear area B-score, replicate 1	droplet/nuclear area B-score, replicate 2
1	CG4610 (GeneID 37571)	1	-0.407	2.43
2	CG4610 (GeneID 37571)	2		-0.00516
3	CG14367 (GeneID 41676)	1	-1.25	-0.705
4	CG3285 (GeneID 33547)	1	-0.0549	0.596
5	Nsun2 (GeneID 45064)	1	-0.012	-0.0865
6	CG9849 (GeneID 37647)	1	-0.0119	-0.0597
7	ninaC (GeneID 34012)	1	-1.73	1.22
8	hpRNA:CR18854 (GeneID 10178800)	1	-0.771	-2.38
9	Cpr100A (GeneID 43657)	1	-0.246	0.292
10	CG30121 (retired record) (GeneID 246468)	1	-1.07	-0.316
11	CG30485 (GeneID 246644)	1	-0.134	-0.139
12	SPR (GeneID 31463)	1	-1.35	-1.33
13	SPR (GeneID 31463)	2	-1.14	-0.147
14	SPR (GeneID 31463)	3	-0.0153	-0.207
15	cnk (GeneID 36952)	1	-1.55	-0.0109
16	Dronc (GeneID 39173)	1	0.504	0.862
17	CG3817 (GeneID 41805)	1	1.07	1.89
18	FRG1 (GeneID 40228)	1	-0.517	-1.33

Reformatted: 5 of the entries above
gene,reagent,"droplet/nuclear area B-score, replicate 1","droplet/nuclear area B-score, replicate 2"
CG3285 (GeneID 33547),1,-0.0549,0.596
Nsun2 (GeneID 45064),1,-0.012,-0.0865
CG9849 (GeneID 37647),1,-0.0119,-0.0597
ninaC (GeneID 34012),1,-1.73,1.22
hpRNA:CR18854 (GeneID 10178800),1,-0.771,-2.38

The results go on:
no.	gene	reagent	droplet/nuclear area B-score, replicate 1	droplet/nuclear area B-score, replicate 2
19	cno (GeneID 40620)	1	-1.37	1.29
20	cno (GeneID 40620)	2	2.18	
21	cno (GeneID 40620)	3	2.12	2.86
22	CG3819 (GeneID 40069)	1	0.108	0.734
23	CG30274 (GeneID 246521)	1	-0.433	-0.0479
24	UQCR-C1 (GeneID 41800)	1	0.445	-4.94
25	U2af50 (GeneID 32602)	1	-2	-1.78
26	U2af50 (GeneID 32602)	2	-2.56	-2.25
27	Vsp37A (GeneID 31006)	1	0.643	-0.0698
28	mim (GeneID 2768716)	1	0.141	-3.28
29	mim (GeneID 2768716)	2	-0.0636	-0.381
30	Cyp9h1 (GeneID 36412)	1	1.69	-0.00382
31	SP (GeneID 39494)	1	1.71	0.18
32	Rrp45 (GeneID 32665)	1	-0.688	-0.227
33	CG12641 (retired record) (GeneID 31963)	1	0.123	0.424
34	CG12641 (retired record) (GeneID 31963)	2	1.06	2
